{
  "source": "patent EP4014973B1",
  "about": "“INHALED LIQUID FOR THE TREATMENT OF RESPIRATORY INFECTIONS IN HUMANS CAUSED BY PATHOGENS RESISTANT TO ANTIBIOTICS” (Conick Biotech LLC, priority 2020, dated 2022)",
  "key": {"[1]": {"system": "Histoplasma capsulatum", "format": "cell-based"}, "[2]": {"system": "mice"}, "[3]": {"system": "rats"}, "[4]": {"system": "mice", "conditions": "inhalatory application"}, "[5]": {"system": "rats", "conditions": "inhalatory application"}, "[6]": {"system": "Candida strain, which requires histidine", "conditions": "Ames test"}},
  "note": "Read-outs that look alike come from different tables or passages of the source.",
  "data": [
    {"smiles": "C=CCc1ccc(O)c(OC)c1.CCN(CC)CC(=O)Nc1c(C)cccc1C", "note": "[Novel Compound, N-[N'-(carboxymethylenyl-2,6-dimethyl-aniline)-N,N-diethylammonium]-[2'-methoxy-4'-(2'-propenyl)]-phenolate.]", "values": [
      {"measurement": "R (evaluation of the results by zone diameter)", "setting": "[1]", "result": "ES (key: 0mm - 4mm: resistant: R; 5 - 9 mm: moderately sensitive: MS; 10 - 15 mm: sensitive: S; 16 - 20 mm: very sensitive: VS; 21 mm and more: extremely sensitive: ES)"},
      {"measurement": "zone diameter", "setting": "[1]", "result": 34, "unit": "mm"},
      {"measurement": "toxicity conclusion", "setting": "[2]; orally (p.o.), applied doses", "result": "low toxic"},
      {"measurement": "oral LD50", "setting": "[2]; p.o.", "result": "over 2,000 µL / kg"},
      {"measurement": "lethality", "setting": "[2]; p.o., doses up to 2,000 µL / kg", "result": "No mouse has ended lethally"},
      {"measurement": "toxicity conclusion", "setting": "[3]; orally (p.o.), applied doses", "result": "low toxic"},
      {"measurement": "oral LD50", "setting": "[3]; p.o.", "result": "over 2,250 µL / kg"},
      {"measurement": "lethality", "setting": "[3]; p.o., doses up to 2,250 µL / kg", "result": "No rats have ended lethally"},
      {"measurement": "toxicity conclusion", "setting": "[4]; applied doses", "result": "low toxic"},
      {"measurement": "lethality", "setting": "[4]; doses up to 2,250 µL / kg", "result": "No mouse has ended lethally"},
      {"measurement": "LD50", "setting": "[4]; nose-only, 4 hours exposure", "result": "over 2,250 µL / kg"},
      {"measurement": "toxicity conclusion", "setting": "[5]; applied doses", "result": "low toxic"},
      {"measurement": "lethality", "setting": "[5]; doses up to 2,500 µL / kg", "result": "No rat has ended lethally"},
      {"measurement": "LD50", "setting": "[5]; nose-only, 6 hours exposure", "result": "over 2,500 µL / kg"},
      {"measurement": "mutagenic test results", "setting": "[6]; Candida strain requiring histidine, rat liver extract, 1ml of the novel compound added to 20 ml of liquid", "result": "negative"},
      {"measurement": "mutagenic and/or cancerogenic effects (conclusion)", "setting": "[6]; preliminary results", "result": "no mutagenic and/or cancerogenic effects"}
    ]}
  ]
}
